Results taken from PubChem BioAssay AID330 (DTP/NCI, 2004).
The list does not hold the whole screen: it is rich in T/C values a quarter to a half above the control, in often repeated tests (any T/C) and in doses without a T/C. Other doses and runs of a compound stand elsewhere. T/C gives the treated animals as a percentage of the vehicle group. Some entries give survivors of the animals treated and no T/C: the source holds a T/C of zero for them, seemingly a mark for toxic or unscored doses. Some doses without a T/C left all or most animals alive at the check, yet need not have been tolerated: survival well below the control is almost never listed, so the zero probably covers shortened survival too. Counts of survivors are from the toxicity check (mostly the fifth day) where no day follows; animals may have died later. Schedules are NCI's codes, read here as Q, the interval in days (D) or hours (H), X, the number of doses. Some entries hold several experiments; the values are given in rising order. For survival time, the PubChem record calls one and a half times the control and up active, and a quarter to a half above the control has no call in these data; cut-offs in other NCI protocols can differ. Some T/C values are followed by the survivors on the day toxicity was checked, most often the fifth; without a count, all were alive then.

Test system: P388 leukemia ip, CD2F1 mice, survival T/C
Test: NCI In Vivo Anticancer Drug Screen. Data for tumor model P388 Leukemia (intraperitoneal) in CD2F1 (CDF1) mice
Details: T/C endpoint: median survival time, higher T/C = longer survival
[1] = dose: 50.0 mg/kg/injection, schedule: Q01DX009 (ip), vehicle: saline
[2] = dose: 100.0 mg/kg/injection, schedule: Q01DX009 (ip), vehicle: saline
[3] = dose: 200.0 mg/kg/injection, schedule: Q01DX009 (ip), vehicle: saline
[4] = dose: 100.0 mg/kg/injection, schedule: Q01DX005 (ip), vehicle: saline with Tween-80
[5] = dose: 200.0 mg/kg/injection, schedule: Q01DX005 (ip), vehicle: saline with Tween-80
[6] = dose: 50.0 mg/kg/injection, schedule: Q01DX005 (ip), vehicle: saline with Tween-80

## CC1=C(N(C)C)C(=O)N(c2ccccc2)CN1C
dose: 30.0 mg/kg/injection, schedule: Q01DX005 (ip), vehicle: saline with Tween-80
  survivor count: 2 of 6
dose: 60.0 mg/kg/injection, schedule: Q01DX005 (ip), vehicle: saline with Tween-80
  survivor count: 0 of 6
dose: 120.0 mg/kg/injection, schedule: Q01DX005 (ip), vehicle: saline with Tween-80
  survivor count: 0 of 6
dose: 240.0 mg/kg/injection, schedule: Q01DX005 (ip), vehicle: saline with Tween-80
  survivor count: 0 of 6

## CC(=O)Nc1ccc(C(=O)N/N=C/c2ccccc2O)cc1
dose: 50.0 mg/kg/injection, schedule: Q01DX005 (ip), vehicle: Klucel (hydroxypropylcellulose) (HPC)
  survivor count: 6 of 6
dose: 100.0 mg/kg/injection, schedule: Q01DX005 (ip), vehicle: Klucel (hydroxypropylcellulose) (HPC)
  survivor count: 6 of 6
dose: 200.0 mg/kg/injection, schedule: Q01DX005 (ip), vehicle: Klucel (hydroxypropylcellulose) (HPC)
  survivor count: 6 of 6

## COc1ccc(OC)c(CCc2cc(OC)ccc2OC)c1
dose: 1.56 mg/kg/injection, schedule: Q01DX009 (ip), vehicle: DMSO
  survivor count: 6 of 6
dose: 3.12 mg/kg/injection, schedule: Q01DX009 (ip), vehicle: DMSO
  survivor count: 6 of 6
dose: 12.5 mg/kg/injection, schedule: Q01DX009 (ip), vehicle: DMSO
  survivor count: 6 of 6
dose: 100.0 mg/kg/injection, schedule: Q01DX009 (ip), vehicle: DMSO
  survivor count: 6 of 6

## CCN(CC)CC(=O)c1ccc(O)c(O)c1
dose: 600.0 mg/kg/injection, schedule: Q01DX009 (ip), vehicle: saline with Tween-80
  survivor count: 1 of 6

## CC(C)(C)C1(C(C)(C)C)CO1
dose: 25.0 mg/kg/injection, schedule: Q01DX009 (ip), vehicle: saline
  survivor count: 5 of 6
[1]
  survivor count: 6 of 6
[2]
  survivor count: 6 of 6
[3]
  survivor count: 0 of 6

## N#CC(=Nc1ccc(F)cc1F)C1=C(O)c2ccccc2C1=O
[4]
  survivor count: 1 of 5
[5]
  survivor count: 0 of 5

## O=C1OC(OC2OC(=O)C(Cl)=C2Cl)C(Cl)=C1Cl (configuration not stated)
[6]
  T/C: 125 % of control
  survivor count: 0 of 5 and 0 of 6
[4]
  survivor count: 0 of 5 and 0 of 6
[5]
  survivor count: 0 of 5

## Nc1ccccc1/C=C/c1ccnc2ccccc12
dose: 25.0 mg/kg/injection, schedule: Q01DX001 (ip), vehicle: Klucel (hydroxypropylcellulose) (HPC)
  T/C: 127 % of control
dose: 50.0 mg/kg/injection, schedule: Q01DX001 (ip), vehicle: Klucel (hydroxypropylcellulose) (HPC)
  T/C: 125 % of control
dose: 100.0 mg/kg/injection, schedule: Q01DX001 (ip), vehicle: Klucel (hydroxypropylcellulose) (HPC)
  T/C: 145 % of control [4 of 6 alive]
dose: 200.0 mg/kg/injection, schedule: Q01DX001 (ip), vehicle: Klucel (hydroxypropylcellulose) (HPC)
  survivor count: 0 of 6

## [CH3][Sn]([CH3])([CH3])[Cl]
dose: 3.12 mg/kg/injection, schedule: Q01DX009 (ip), vehicle: saline
  survivor count: 0 of 6
dose: 6.25 mg/kg/injection, schedule: Q01DX009 (ip), vehicle: saline
  survivor count: 0 of 6
dose: 12.5 mg/kg/injection, schedule: Q01DX009 (ip), vehicle: saline
  survivor count: 0 of 6
[1]
  survivor count: 0 of 6
[2]
  survivor count: 0 of 6
[3]
  survivor count: 0 of 6

## O=C(Nc1ccc(Br)c2c(NC(=O)c3ccccc3)ccc(Br)c12)c1ccccc1
dose: 6.25 mg/kg/injection, schedule: Q01DX009 (ip), vehicle: saline with Tween-80
  survivor count: 6 of 6
dose: 12.5 mg/kg/injection, schedule: Q01DX009 (ip), vehicle: saline with Tween-80
  survivor count: 6 of 6
dose: 25.0 mg/kg/injection, schedule: Q01DX009 (ip), vehicle: saline with Tween-80
  survivor count: 6 of 6
dose: 50.0 mg/kg/injection, schedule: Q01DX009 (ip), vehicle: saline with Tween-80
  survivor count: 6 of 6
dose: 100.0 mg/kg/injection, schedule: Q01DX009 (ip), vehicle: saline with Tween-80
  survivor count: 6 of 6
